In US20210230570A1:
These are yes or no findings as the source states them, for the method shown. Some entries that bind do so weakly or less than the wild type.

Chains of the proteins cited; added tags and fusions are not shown. Lines headed by an entry give the natural chain unless they say otherwise; changes in a name come on top. A line that says so, or that is headed by a name, gives the form on record, which may keep a tag or linker.
Factor VIIIa (recombinant FVIII, Kogenate FS, activated with alpha-thrombin) (P00451, form named): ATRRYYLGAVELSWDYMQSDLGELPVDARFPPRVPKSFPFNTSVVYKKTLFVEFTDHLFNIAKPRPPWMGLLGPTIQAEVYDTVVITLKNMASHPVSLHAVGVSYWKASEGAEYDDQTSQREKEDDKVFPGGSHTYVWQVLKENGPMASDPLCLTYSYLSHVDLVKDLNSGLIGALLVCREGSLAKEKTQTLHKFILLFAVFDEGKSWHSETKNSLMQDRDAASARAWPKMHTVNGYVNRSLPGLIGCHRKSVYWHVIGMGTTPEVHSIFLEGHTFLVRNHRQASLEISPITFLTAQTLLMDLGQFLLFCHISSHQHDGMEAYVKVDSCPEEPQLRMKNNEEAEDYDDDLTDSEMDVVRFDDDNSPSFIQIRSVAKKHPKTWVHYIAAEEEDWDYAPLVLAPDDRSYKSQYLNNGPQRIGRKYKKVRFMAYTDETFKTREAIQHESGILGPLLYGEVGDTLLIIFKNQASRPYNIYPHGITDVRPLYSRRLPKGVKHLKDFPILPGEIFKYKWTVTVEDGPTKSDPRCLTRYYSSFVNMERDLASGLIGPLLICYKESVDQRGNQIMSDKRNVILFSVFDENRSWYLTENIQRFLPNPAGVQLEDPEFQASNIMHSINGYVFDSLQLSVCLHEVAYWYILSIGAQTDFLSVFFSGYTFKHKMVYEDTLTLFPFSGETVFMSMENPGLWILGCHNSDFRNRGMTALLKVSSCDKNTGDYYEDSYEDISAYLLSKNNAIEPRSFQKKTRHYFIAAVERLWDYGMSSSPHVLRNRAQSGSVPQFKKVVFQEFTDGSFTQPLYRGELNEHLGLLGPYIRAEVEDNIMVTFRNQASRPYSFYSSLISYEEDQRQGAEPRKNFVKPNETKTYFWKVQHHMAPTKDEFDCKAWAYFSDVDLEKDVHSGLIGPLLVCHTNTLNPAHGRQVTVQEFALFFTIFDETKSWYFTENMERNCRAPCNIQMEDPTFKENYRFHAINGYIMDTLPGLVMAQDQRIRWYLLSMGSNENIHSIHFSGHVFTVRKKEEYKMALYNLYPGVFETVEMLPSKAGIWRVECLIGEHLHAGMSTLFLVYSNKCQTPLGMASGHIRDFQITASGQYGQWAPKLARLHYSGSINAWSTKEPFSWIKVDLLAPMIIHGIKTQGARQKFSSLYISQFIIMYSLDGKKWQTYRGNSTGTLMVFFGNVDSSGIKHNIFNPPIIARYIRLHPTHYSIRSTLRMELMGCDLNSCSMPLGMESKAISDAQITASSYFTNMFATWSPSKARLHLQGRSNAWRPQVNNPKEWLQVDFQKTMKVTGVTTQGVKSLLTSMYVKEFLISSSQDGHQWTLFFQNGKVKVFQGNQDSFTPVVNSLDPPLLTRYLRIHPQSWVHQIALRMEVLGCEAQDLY
UniProt P00740: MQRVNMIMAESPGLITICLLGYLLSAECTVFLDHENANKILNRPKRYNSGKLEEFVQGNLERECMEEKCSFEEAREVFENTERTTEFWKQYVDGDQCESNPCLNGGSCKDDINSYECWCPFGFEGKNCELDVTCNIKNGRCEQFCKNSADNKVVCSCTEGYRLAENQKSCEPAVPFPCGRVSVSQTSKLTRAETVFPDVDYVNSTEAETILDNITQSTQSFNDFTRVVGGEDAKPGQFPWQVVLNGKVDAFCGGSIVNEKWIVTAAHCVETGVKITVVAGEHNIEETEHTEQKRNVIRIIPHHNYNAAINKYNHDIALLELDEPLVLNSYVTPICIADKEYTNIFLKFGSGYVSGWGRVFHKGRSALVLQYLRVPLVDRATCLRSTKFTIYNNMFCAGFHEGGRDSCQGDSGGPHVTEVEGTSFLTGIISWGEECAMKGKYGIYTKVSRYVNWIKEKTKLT

Molecular target: Factor VIIIa (recombinant FVIII, Kogenate FS, activated with alpha-thrombin) (UniProt P00451)
Test: functional cofactor binding (KD-app): FX activation by FIXa at varied FVIIIa, PC/PS vesicles, fluorogenic FXa read-out

Substance | binding
FIXa-Y155F/K247N/N249S/R318Y/R338E/T343R/R403E/E410N (from UniProt P00740 47-191; P00740 227-461) (enzyme) | binds
FIXa-R338E/E410N (from UniProt P00740 47-191; P00740 227-461) (enzyme) | binds
FIXa-R318Y/R338E (from UniProt P00740 47-191; P00740 227-461) (enzyme) | binds
FIXa-R338E/T343R (from UniProt P00740 47-191; P00740 227-461) (enzyme) | binds
FIXa-R318Y/R338E/R403E/E410N (from UniProt P00740 47-191; P00740 227-461) (enzyme) | binds
FIXa-E410N (from UniProt P00740 47-191; P00740 227-461) (enzyme) | binds
FIXa-R338E (from UniProt P00740 47-191; P00740 227-461) (enzyme) | binds
FIXa-T343R (from UniProt P00740 47-191; P00740 227-461) (enzyme) | binds
FIXa-R318Y/R338E/T343R/E410N (from UniProt P00740 47-191; P00740 227-461) (enzyme) | binds
FIXa-R318Y/R338E/E410N (from UniProt P00740 47-191; P00740 227-461) (enzyme) | binds
FIXa-K228N/K247N/N249S/R318Y/R338E/T343R/E410N (from UniProt P00740 47-191; P00740 227-461) (enzyme) | binds
